From patent publication US20170173151A1 (Genmab, published 2017) come the findings set out here.

The assay concerns the target cynomolgus CD74 (in frozen cynomolgus lymph node tissue) (cynomolgus). Put plainly: immunohistochemistry on frozen cynomolgus lymph node tissue.

These are yes or no findings as the source states them, for the method shown. Some binding calls cover weakened binding; strength is not graded here.

B1: HuMab-CD74-006 (antibody, human IgG1, V domains shown)
VH: QVQLVESGGGVVQPGRSLRLSCAASGFTFSSYAMHWVRQAPGKGLEWVAVISYDGSIKYYADSVKGRFTISRDNSKNTLYLQMNSLRVEDTAVFYCARGREITSQNIVILLDYWGQGTLVTVTS
VL: DIQMTQSPSSLSASVGDRVTITCRASQGISSWLAWYQQKPEKAPKSLIYAASSLQSGVPSRFSGSGSGTDFTLTISSLQPEDFATYYCQQYNSYPLTFGGGTKVEIK
notes: Human IgG1,kappa antibody produced transiently in HEK-293F cells; also called antibody 006
For B1, the binding result is “binds”.
